Numbering of substitutions follows the chain as printed.
B1: 49D1, 72A (protein, listed as Rattus norvegicus)
chain: AFDGTWKVDRNENYEKFMEKMGINVVKRKLGAHDNLKLTITQEGNKFTDKESSNFRNIDVVFELGVDFAYSAADGTELTGTWTMEGNKLVGKFKRVDNGKELIAVREISGNELIQTYTYEGVEAKRIFKKE
modifications: PEPTIDE (1)...(131) wild-type rat intestinal fatty acid binding protein
B2: 49F1, 72A (protein, listed as Rattus norvegicus)
chain: B1 chain with D49F
modifications: PEPTIDE (1)...(131) wild-type rat intestinal fatty acid binding protein
B3: 49G1, 72A (protein, listed as Rattus norvegicus)
chain: B1 chain with D49G
modifications: PEPTIDE (1)...(131) wild-type rat intestinal fatty acid binding protein
B4: 49H1, 72A (protein, listed as Rattus norvegicus)
chain: B1 chain with D49H
modifications: PEPTIDE (1)...(131) wild-type rat intestinal fatty acid binding protein
B5: 49I1, 72A (protein, listed as Rattus norvegicus)
chain: B1 chain with D49I
modifications: PEPTIDE (1)...(131) wild-type rat intestinal fatty acid binding protein
B6: 49K1, 72A (protein, listed as Rattus norvegicus)
chain: B1 chain with D49K
modifications: PEPTIDE (1)...(131) wild-type rat intestinal fatty acid binding protein
B7: 49L1, 72A (protein, listed as Rattus norvegicus)
chain: B1 chain with D49L
modifications: PEPTIDE (1)...(131) wild-type rat intestinal fatty acid binding protein
B8: 49M1, 72A (protein, listed as Rattus norvegicus)
chain: B1 chain with D49M
modifications: PEPTIDE (1)...(131) wild-type rat intestinal fatty acid binding protein
B9: 49N1, 72A (protein, listed as Rattus norvegicus)
chain: B1 chain with D49N
modifications: PEPTIDE (1)...(131) wild-type rat intestinal fatty acid binding protein
B10: 49P1, 72A (protein, listed as Rattus norvegicus)
chain: B1 chain with D49P
modifications: PEPTIDE (1)...(131) wild-type rat intestinal fatty acid binding protein
B11: 49Q, 72A (protein, listed as Rattus norvegicus)
chain: B1 chain with D49Q
modifications: PEPTIDE (1)...(131) wild-type rat intestinal fatty acid binding protein
B12: 49Q1, 72A (protein, listed as Rattus norvegicus)
chain: B1 chain with D49Q
modifications: PEPTIDE (1)...(131) wild-type rat intestinal fatty acid binding protein
B13: 49R1, 72A (protein, listed as Rattus norvegicus)
chain: B1 chain with D49R
modifications: PEPTIDE (1)...(131) wild-type rat intestinal fatty acid binding protein
B14: 49S1, 72A (protein, listed as Rattus norvegicus)
chain: B1 chain with D49S
modifications: PEPTIDE (1)...(131) wild-type rat intestinal fatty acid binding protein
B15: 49T1, 72A (protein, listed as Rattus norvegicus)
chain: B1 chain with D49T
modifications: PEPTIDE (1)...(131) wild-type rat intestinal fatty acid binding protein
B16: 49W1, 72A (protein, listed as Rattus norvegicus)
chain: B1 chain with D49W
modifications: PEPTIDE (1)...(131) wild-type rat intestinal fatty acid binding protein
B17: 49Y1, 72A (protein, listed as Rattus norvegicus)
chain: B1 chain with D49Y
modifications: PEPTIDE (1)...(131) wild-type rat intestinal fatty acid binding protein
B18: 51A1, 72A (protein, listed as Rattus norvegicus)
chain: B1 chain with D49V, E51A
modifications: PEPTIDE (1)...(131) wild-type rat intestinal fatty acid binding protein
B19: 51C3, 72A (protein, listed as Rattus norvegicus)
chain: B1 chain with D49V, E51C
modifications: PEPTIDE (1)...(131) wild-type rat intestinal fatty acid binding protein
B20: 51D1, 72A (protein, listed as Rattus norvegicus)
chain: B1 chain with D49V, E51D
modifications: PEPTIDE (1)...(131) wild-type rat intestinal fatty acid binding protein
B21: 51F1, 72A (protein, listed as Rattus norvegicus)
chain: B1 chain with D49V, E51F
modifications: PEPTIDE (1)...(131) wild-type rat intestinal fatty acid binding protein
B22: 51G1, 72A (protein, listed as Rattus norvegicus)
chain: B1 chain with D49V, E51G
modifications: PEPTIDE (1)...(131) wild-type rat intestinal fatty acid binding protein
B23: 51H1, 72A (protein, listed as Rattus norvegicus)
chain: B1 chain with D49V, E51H
modifications: PEPTIDE (1)...(131) wild-type rat intestinal fatty acid binding protein
B24: 51I1, 72A (protein, listed as Rattus norvegicus)
chain: B1 chain with D49V, E51I
modifications: PEPTIDE (1)...(131) wild-type rat intestinal fatty acid binding protein
B25: 102V, 72A (protein, listed as Rattus norvegicus)
chain: B1 chain with D49V, L102V
modifications: PEPTIDE (1)...(131) wild-type rat intestinal fatty acid binding protein

assay: Baseline fluorescence ratio Ro of probe in absence of analyte; settings: average baseline fluorescence ratio Ro of the clone probe; substitutions with respect to SEQ ID NO: 2

Row | Molecule | AvgOfRo
1 | B1 | 0.23
2 | B2 | 0.39
3 | B3 | 0.43
4 | B4 | 0.44
5 | B5 | 0.36
6 | B6 | 0.43
7 | B7 | 0.37
8 | B8 | 0.35
9 | B9 | 0.35
10 | B10 | 0.40
11 | B11 | 0.23
12 | B12 | 0.39
13 | B13 | 0.42
14 | B14 | 0.40
15 | B15 | 0.28
16 | B16 | 0.31
17 | B17 | 0.43
18 | B18 | 0.41
19 | B19 | 0.42
20 | B20 | 0.42
21 | B21 | 0.43
22 | B22 | 0.41
23 | B23 | 0.35
24 | B24 | 0.39

same assay, conditions: baseline fluorescence ratio of probe, no fatty acid

Row | Molecule | AvgOfRo
25 | B25 | 0.18
